Test results as given in article PMC10603047.
These are yes or no findings as the source states them, for the method shown. In cells and extracts the contact can be indirect. Some binding calls cover weakened binding; strength is not graded here.

The chains behind the UniProt entries cited, without tags or fusion partners.
UniProt P19474: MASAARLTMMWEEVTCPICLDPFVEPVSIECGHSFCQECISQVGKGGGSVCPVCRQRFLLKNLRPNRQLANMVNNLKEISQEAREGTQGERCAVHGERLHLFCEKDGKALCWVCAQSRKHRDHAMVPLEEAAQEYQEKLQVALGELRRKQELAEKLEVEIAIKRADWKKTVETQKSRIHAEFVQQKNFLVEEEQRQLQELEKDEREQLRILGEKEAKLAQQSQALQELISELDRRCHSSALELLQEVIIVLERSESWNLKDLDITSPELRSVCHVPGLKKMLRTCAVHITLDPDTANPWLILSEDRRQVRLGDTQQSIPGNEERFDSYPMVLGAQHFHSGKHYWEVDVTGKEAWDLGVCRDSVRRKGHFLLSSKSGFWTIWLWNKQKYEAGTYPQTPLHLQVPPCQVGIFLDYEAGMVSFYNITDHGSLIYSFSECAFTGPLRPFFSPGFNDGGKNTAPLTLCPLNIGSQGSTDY
UniProt P46937: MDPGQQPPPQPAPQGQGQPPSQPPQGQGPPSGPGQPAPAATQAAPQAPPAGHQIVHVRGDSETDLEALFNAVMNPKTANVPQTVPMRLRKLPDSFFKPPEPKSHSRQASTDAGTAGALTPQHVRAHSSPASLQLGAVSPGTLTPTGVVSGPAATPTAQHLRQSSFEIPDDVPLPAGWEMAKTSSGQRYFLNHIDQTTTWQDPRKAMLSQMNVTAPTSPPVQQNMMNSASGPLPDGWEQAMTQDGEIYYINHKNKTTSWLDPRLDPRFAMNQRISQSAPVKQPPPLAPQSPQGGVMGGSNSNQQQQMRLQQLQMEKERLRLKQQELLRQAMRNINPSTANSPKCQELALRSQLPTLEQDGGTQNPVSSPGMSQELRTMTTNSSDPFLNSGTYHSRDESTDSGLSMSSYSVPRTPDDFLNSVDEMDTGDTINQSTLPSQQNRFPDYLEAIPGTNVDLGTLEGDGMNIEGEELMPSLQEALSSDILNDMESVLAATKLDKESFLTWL
UniProt P46938: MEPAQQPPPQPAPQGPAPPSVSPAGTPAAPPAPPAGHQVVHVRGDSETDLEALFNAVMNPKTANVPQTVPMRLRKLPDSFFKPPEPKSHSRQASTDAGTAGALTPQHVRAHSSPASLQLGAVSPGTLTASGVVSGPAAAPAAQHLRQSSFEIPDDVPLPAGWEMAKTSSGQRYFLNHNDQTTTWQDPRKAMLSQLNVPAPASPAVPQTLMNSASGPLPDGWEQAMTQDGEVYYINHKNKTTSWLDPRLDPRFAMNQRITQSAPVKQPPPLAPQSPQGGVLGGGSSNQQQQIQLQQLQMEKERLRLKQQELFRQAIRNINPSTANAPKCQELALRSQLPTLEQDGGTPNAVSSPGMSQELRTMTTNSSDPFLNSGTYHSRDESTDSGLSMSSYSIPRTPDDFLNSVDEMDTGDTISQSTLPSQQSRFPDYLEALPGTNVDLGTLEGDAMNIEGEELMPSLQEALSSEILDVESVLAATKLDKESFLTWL
UniProt Q02248: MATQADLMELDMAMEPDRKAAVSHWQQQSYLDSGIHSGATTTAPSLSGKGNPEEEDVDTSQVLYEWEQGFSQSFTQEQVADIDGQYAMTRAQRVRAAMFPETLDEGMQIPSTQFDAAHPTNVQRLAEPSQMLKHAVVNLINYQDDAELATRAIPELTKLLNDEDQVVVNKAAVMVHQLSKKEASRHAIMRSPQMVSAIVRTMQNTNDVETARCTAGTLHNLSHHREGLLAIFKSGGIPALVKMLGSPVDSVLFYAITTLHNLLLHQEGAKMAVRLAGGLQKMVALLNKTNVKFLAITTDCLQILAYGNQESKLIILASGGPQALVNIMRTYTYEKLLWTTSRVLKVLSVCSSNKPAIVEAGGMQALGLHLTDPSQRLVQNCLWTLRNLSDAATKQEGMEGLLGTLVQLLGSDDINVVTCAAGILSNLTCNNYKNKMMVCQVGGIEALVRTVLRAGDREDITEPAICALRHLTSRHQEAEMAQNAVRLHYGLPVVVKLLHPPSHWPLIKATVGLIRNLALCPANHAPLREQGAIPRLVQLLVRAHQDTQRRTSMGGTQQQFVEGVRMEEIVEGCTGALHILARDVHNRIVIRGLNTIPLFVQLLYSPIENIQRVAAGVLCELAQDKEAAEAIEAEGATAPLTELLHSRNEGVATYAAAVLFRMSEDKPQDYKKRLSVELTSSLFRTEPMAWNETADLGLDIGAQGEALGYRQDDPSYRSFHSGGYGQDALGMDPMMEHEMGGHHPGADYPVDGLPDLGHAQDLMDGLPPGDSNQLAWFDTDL

Key:
[1] = target: HA-VC155-Trim21 (UniProt P19474); assay: split reporter; BiFC (Venus VN155/VC155) in HEK293T cells cotransfected with Myc-VN155-YAP1, HA-VC155-Trim21 and HA-cerulean; fixed, confocal microscopy
[2] = target: T1, Trim21 (mouse (endogenous in MC3T3-E1)) (UniProt Q62191); assay: co-IP; endogenous proteins of MC3T3-E1 cells with or without osteogenic induction; lysed by sonication in Western and IP Lysis Buffer; antibodies against YAP1, BCL9, Trim21 or control IgG overnight at 4 °C, protein A agarose, five washes, immunoblotting
T1 sequence: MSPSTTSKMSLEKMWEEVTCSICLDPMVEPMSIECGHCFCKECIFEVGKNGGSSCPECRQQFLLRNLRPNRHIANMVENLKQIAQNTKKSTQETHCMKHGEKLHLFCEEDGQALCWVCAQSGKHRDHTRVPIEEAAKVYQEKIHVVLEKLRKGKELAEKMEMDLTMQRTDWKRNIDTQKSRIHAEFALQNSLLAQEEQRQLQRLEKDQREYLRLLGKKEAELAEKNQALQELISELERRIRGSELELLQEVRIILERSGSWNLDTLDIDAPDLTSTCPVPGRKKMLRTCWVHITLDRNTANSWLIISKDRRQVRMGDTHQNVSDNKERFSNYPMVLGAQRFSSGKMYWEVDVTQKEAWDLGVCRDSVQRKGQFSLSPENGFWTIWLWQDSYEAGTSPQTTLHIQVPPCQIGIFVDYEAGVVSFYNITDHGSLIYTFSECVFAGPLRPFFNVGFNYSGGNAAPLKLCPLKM

Row | Substance | binding [1] | binding [2]
1 | Myc-VN155-YAP1 (from UniProt P46937 1-504) | binds | –
2 | YAP1 (from UniProt P46938 1-488) | – | binds
3 | β-catenin (from UniProt Q02248 1-781) | – | binds
